The other results are listed elsewhere or left out.

For the assay, the target named is T1, OsSMF1 (Oryza sativa, UniProt Q6ZLB0 1-436).
T1 sequence: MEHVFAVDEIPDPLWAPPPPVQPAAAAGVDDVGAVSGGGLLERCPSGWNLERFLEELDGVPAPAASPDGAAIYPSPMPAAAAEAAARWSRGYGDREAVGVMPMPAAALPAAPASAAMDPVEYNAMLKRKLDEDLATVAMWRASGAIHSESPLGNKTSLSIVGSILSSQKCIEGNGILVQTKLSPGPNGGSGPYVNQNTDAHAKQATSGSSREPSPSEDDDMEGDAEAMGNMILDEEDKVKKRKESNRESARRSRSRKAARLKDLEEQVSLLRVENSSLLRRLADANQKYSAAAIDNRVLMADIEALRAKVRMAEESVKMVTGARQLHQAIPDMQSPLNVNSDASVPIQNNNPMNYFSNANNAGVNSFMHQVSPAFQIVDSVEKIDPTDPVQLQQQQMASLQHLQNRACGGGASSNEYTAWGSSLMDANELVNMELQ
As to the kind of experiment: protein-binding microarray (RPBM); PBS, 2% BSA, 51.3 ng/ul salmon testes DNA, 50 uM zinc acetate, 200 nM TF, 25 C, 1 h; high values mean tight binding. To be noted: protein: recombinant; tags: N-terminal polyhistidine and DsRed monomer fusion (pET32a); chain copies: 2; label: CyDye5-dUTP incorporated in the synthesized complementary strand; 3' TTTTT single-stranded linker to array surface; dsDNA, one strand shown. A digest of the protocol:
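Per-feature fluorescence intensity (arbitrary units), read on an Axon 4000B scanner, is the binding signal. Transcription factors carrying an N-terminal polyhistidine tag and DsRed fusion were expressed in E. coli BL21-CodonPlus and purified on Ni–NTA. A custom Agilent array, made double-stranded by primer extension with Cy5-dUTP and blocked with 2% BSA, was incubated with 200 nM protein in PBS, 2% BSA, salmon testes DNA and 50 µM zinc acetate at 25 °C for 1 h and then washed.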
For “AAACAAAATAGCATAATCACTCACCGCGTCACACAGCGGGCGGAGTCACCTAGTGCAG”, the binding signal was 3720 fluorescence intensity (a.u.). Consider “TCCTCTGATCGGCCTCTCTCGCACATTGCTTAATTAGCTACGGAGTCACCTAGTGCAG”, for which the binding signal is 3170 fluorescence intensity (a.u.).

In the case of “GACTCTGCAACACACGGTGCCCGCGCGTTCGCTACGTGTGCGGAGTCACCTAGTGCAG”, the binding signal was 3530 fluorescence intensity (a.u.).

Regarding “GTGCATGGGCGGTCATTAAATTTATAGGGATGTGTCATCTCGGAGTCACCTAGTGCAG”, the binding signal is 3590 fluorescence intensity (a.u.). As for “TGGAGAAATATCCAGTTTTACATCTTCACCGTAATATGCGCGGAGTCACCTAGTGCAG”, the binding signal is 24600 fluorescence intensity (a.u.).

Consider “ATATCCGGCTCACCGGTCCACGTGGACCGTGATCTCCCTTCGGAGTCACCTAGTGCAG”, for which the binding signal is 11900 fluorescence intensity (a.u.). With “TCATAGTGATGCACTTGATATAACACATCATTATCAATCTCGGAGTCACCTAGTGCAG” the figure was 4200 fluorescence intensity (a.u.). With “TTTAGACCACAAACCAAACCAGCCCATAGTAACAAATCTACGGAGTCACCTAGTGCAG” the figure was 3410 fluorescence intensity (a.u.). In the case of “GGGTGGCAGTGGCGCCGAGGACGCACGCCACGTGTTTGACCGGAGTCACCTAGTGCAG”, the binding signal was 7490 fluorescence intensity (a.u.). With “TCATTCCAACCAACTGACAGGCAGGAAAGAGACCTCAGTCCGGAGTCACCTAGTGCAG”, the binding signal was 37700 fluorescence intensity (a.u.). As to “TGCACGACACCGCTGGTGAGTCATGCGACACGTGTCATCGCGGAGTCACCTAGTGCAG”, the binding signal was 27600 fluorescence intensity (a.u.). Consider “AGCGTACTACGTGTATACCGGCGTCGGTCGATCGACGGCACGGAGTCACCTAGTGCAG”, for which the binding signal was 3260 fluorescence intensity (a.u.). Next, “ATTGCGCAGGCGCAGCAATATTGAATGGCCCAAATGCTAGCGGAGTCACCTAGTGCAG”: 23800 fluorescence intensity (a.u.); “TATTTTCGGGCTCACATGTTAGCCACCAAGTCAGAGGGAACGGAGTCACCTAGTGCAG”: 3640 fluorescence intensity (a.u.). Turning to “ATATGAGTCGATCAGATCGAGCTTCATATATACTAGACCACGGAGTCACCTAGTGCAG”, the binding signal is 3140 fluorescence intensity (a.u.). In the case of “TGTCATTGACTCACGTGGGTCCTACATGTCATTGAGCTTTCGGAGTCACCTAGTGCAG”, the binding signal was 10300 fluorescence intensity (a.u.). With “GACATTACAGATTAACTAGTAACATGGTCATTAGTTGTCACGGAGTCACCTAGTGCAG” the figure was 3460 fluorescence intensity (a.u.); with “ACCCAGCGAGCTCACGTGACGCTGATAATAGTATAGATAGCGGAGTCACCTAGTGCAG”, 3500 fluorescence intensity (a.u.). Take “CCTCAATTATTTGCAAGATGGGGTCATCACTATTGTAGTACGGAGTCACCTAGTGCAG”: the binding signal was 4460 fluorescence intensity (a.u.). As to “TAGAATGTATGTTTGACGTCAGATGGTTTTAACTCCCTTGCGGAGTCACCTAGTGCAG”, the binding signal was 9400 fluorescence intensity (a.u.). Next, “GAAGTGATTGATATTTGAGCAATTAGTCCGTTGTCAGGGTCGGAGTCACCTAGTGCAG”: 3300 fluorescence intensity (a.u.). “ACAGGCATCCACCCTCCAAATTACATTACACAGTACCTAGCGGAGTCACCTAGTGCAG”: the binding signal was 4820 fluorescence intensity (a.u.).

Turning to “GAAACACGGAGATTTCAAGTGGAGTTCCGTAGTCATTTCACGGAGTCACCTAGTGCAG”, the binding signal was 3270 fluorescence intensity (a.u.). Next, “CCTTTCGGGCAAATTTCAGTGTCATATATATTCACTGACCCGGAGTCACCTAGTGCAG”: 3850 fluorescence intensity (a.u.); “GCTGTCCTATGACATGGAGGACATCGCCGACACCTTCAAGCGGAGTCACCTAGTGCAG”: 3420 fluorescence intensity (a.u.); “TTAGAATGTCGGTCTCGCTGTTTGGCCATCCATCCGCGTGCGGAGTCACCTAGTGCAG”: 22500 fluorescence intensity (a.u.). With “ACCTCCCTTATGATGAGTAATCTATTTACTGAACACATAACGGAGTCACCTAGTGCAG” the figure was 3150 fluorescence intensity (a.u.).

Take “TGGCCATCGCCTACGGTGAGCAGTCATCGTCGTCCATCCGCGGAGTCACCTAGTGCAG”: the binding signal was 4090 fluorescence intensity (a.u.). As for “CCCTGCCCGCTCTTACACGGCACGTCTCATTCAAATATGACGGAGTCACCTAGTGCAG”, the binding signal is 3360 fluorescence intensity (a.u.).

With “TGTTGGTAGCACAGTACACATCACGGTTCCGTAGCACCTGCGGAGTCACCTAGTGCAG”, the binding signal was 6290 fluorescence intensity (a.u.). Next, “TGACTGCGATGACTGAGGATCTTTCAACAACACACAAGTGCGGAGTCACCTAGTGCAG”: 3550 fluorescence intensity (a.u.).

Turning to “TTTTCCTACTTGCCCCTACACGTGGTAGAGAATACGGTTTCGGAGTCACCTAGTGCAG”, the binding signal is 6220 fluorescence intensity (a.u.). In the case of “CGACTACTTGTTCTTTTCGACGTGTAACATTGATCAAATACGGAGTCACCTAGTGCAG”, the binding signal was 3810 fluorescence intensity (a.u.). With “TGACGGCGACAAGAACAGTGATAGCGAATATGAGTCTGACCGGAGTCACCTAGTGCAG” the figure was 7670 fluorescence intensity (a.u.); with “CAAGCTATAAACACAAGCTGATTCATTGCCTTTGCCTCTTCGGAGTCACCTAGTGCAG”, 4190 fluorescence intensity (a.u.).

As to “TCGGCATAATTTGTATGACGTGTCCTATCACAACAAACTCCGGAGTCACCTAGTGCAG”, the binding signal was 13700 fluorescence intensity (a.u.). Next, “CGAGTTGCTCGTATATTTTAATAGCCGACCGTCGCCGTGGCGGAGTCACCTAGTGCAG”: 3580 fluorescence intensity (a.u.); “GCACAAGCAAGCACACGTACGCCACAGAGCACACACAGCCCGGAGTCACCTAGTGCAG”: 3880 fluorescence intensity (a.u.); “TTTTAAACCGAGCGACCCACGTAGACATAAGAGGTGGTTACGGAGTCACCTAGTGCAG”: 5220 fluorescence intensity (a.u.). Next, “TCGAATTTTCAGCCATATGATGATGTGTCAAGATTCGTGTCGGAGTCACCTAGTGCAG”: 11900 fluorescence intensity (a.u.); “GTTCCATCGCATGCTCAACTTGGGGCAGGTCAGGTAAGCTCGGAGTCACCTAGTGCAG”: 3170 fluorescence intensity (a.u.); “CTCGGGATTGCTAATTAGCGCACGTGTGTTTCCAACAAATCGGAGTCACCTAGTGCAG”: 3320 fluorescence intensity (a.u.).

The values above are taken from PMC7819943, “Rice protein-binding microarrays: a tool to detect cis-acting elements near promoter regions in rice”.
